# Results published in patent publication US20060189520A1, “Treatment of diabetes” (priority 2002, published 2006).
# For at least one compound, name, drawing or mass did not settle the structure.
# Tested on: NOD mice with recent-onset diabetes
# Assay: GLP-1 and gastrin therapy of recent-onset diabetes in NOD mice, fasting blood glucose
# Type: in vivo, mouse
# Settings: NOD female mice, GLP-1 100 μg/kg/day, gastrin 3 μg/kg/day, i.p. twice a day; for FBG (mM) at day: 18: day 18 (treatment stopped at 14 days)
# Description: In this example, the effect of treatment by a combination of GLP-1 and gastrin was examined in NOD mice with recent onset diabetes, to determine whether administration of both GLP-1 and gastrin would prevent severe hyperglycemia, ketoacidosis and death as well as increase pancreatic insulin content in NOD mice with recent-onset diabetes. The I.N.T.™ composition used was gastrin as synthetic human gastrin I having 17 amino acid residues with a Leu residue at amino acid position 15. The GLP-1 used was GLP-1 which is the biologically active fragment of human/mouse GLP-1 (having residues at positions 7-36 compared to the precursor from which the fragment is processed; obtained from Bachem H6795).
# Non-obese diabetic (NOD) female mice, ages 12-14 weeks, were monitored for development of onset of diabetes (fasting blood glucose >8.0 to 15 mmol/l), and within 48 hours after onset of symptoms, two groups of mice were each treated as follows: one group was treated with vehicle only; and the other group was administered 100 μg/kg/day of GLP-1, each treatment administered via the intraperitoneal route twice daily.
# Therapy was administered for 14 days. Animals were monitored weekly for fasting blood glucose (FBG) levels. FBG levels were measured at about 12 hours after food had been withdrawn, and 24 hours after the last peptide or vehicle injection. Upon cessation of therapy, all mice were monitored for FBG levels for the next 4 weeks (weeks 2-6) so as to determine whether prevention of hyperglycemia persisted after termination of therapeutic treatment.
# The protocol includes sampling of these mice for data again at 6 weeks, and blood collected for assay of FBG and plasma C-peptide, and the mice are sacrificed for pancreatic insulin determinations and scoring of islet inflammation (insulitis). From the outset of treatment, mice received neither insulin-replacement treatment nor immunosuppression. The following parameters are assessed: survival rates, pancreatic insulin levels, presence of islet inflammation and fasting blood glucose levels.
smiles,measurement,setting,value
CSCCC(NC(=O)C(Cc1c[nH]c2ccccc12)NC(=O)CNC(=O)C(Cc1ccc(O)cc1)NC(=O)C(C)NC(=O)C(CCC(=O)O)NC(=O)C(CCC(=O)O)NC(=O)C(CCC(=O)O)NC(=O)[C@H](CCC(=O)O)NC(=O)[C@H](CCC(=O)O)NC(=O)[C@H](CC(C)C)NC(=O)[C@H](Cc1c[nH]c2ccccc12)NC(=O)[C@@H]1CCCN1C(=O)CNC(=O)[C@@H](N)CCC(=O)O)C(=O)NC(CC(=O)O)C(=O)NC(Cc1ccccc1)C(N)=O (stereo in doubt) [Gastrin],FBG (mM) at day: 0,day 0 (start of treatment),11.8 ± 0.9 mM
same,FBG (mM) at day: 7,day 7 of treatment,14.8 ± 3.4 mM
same,FBG (mM) at day: 14,day 14 (end of treatment),16.4 ± 3.4 mM
same,FBG (mM) at day: 18,,19.0 ± 4.5 mM
same,FBG (mM) at day: 18,listed as gastrin,19.0 mM
